{"sequences": {"note": "By UniProt entry, the sequences of proteins in these tests, tags left out.", "UniProt Q03164, whole entry, looked up": "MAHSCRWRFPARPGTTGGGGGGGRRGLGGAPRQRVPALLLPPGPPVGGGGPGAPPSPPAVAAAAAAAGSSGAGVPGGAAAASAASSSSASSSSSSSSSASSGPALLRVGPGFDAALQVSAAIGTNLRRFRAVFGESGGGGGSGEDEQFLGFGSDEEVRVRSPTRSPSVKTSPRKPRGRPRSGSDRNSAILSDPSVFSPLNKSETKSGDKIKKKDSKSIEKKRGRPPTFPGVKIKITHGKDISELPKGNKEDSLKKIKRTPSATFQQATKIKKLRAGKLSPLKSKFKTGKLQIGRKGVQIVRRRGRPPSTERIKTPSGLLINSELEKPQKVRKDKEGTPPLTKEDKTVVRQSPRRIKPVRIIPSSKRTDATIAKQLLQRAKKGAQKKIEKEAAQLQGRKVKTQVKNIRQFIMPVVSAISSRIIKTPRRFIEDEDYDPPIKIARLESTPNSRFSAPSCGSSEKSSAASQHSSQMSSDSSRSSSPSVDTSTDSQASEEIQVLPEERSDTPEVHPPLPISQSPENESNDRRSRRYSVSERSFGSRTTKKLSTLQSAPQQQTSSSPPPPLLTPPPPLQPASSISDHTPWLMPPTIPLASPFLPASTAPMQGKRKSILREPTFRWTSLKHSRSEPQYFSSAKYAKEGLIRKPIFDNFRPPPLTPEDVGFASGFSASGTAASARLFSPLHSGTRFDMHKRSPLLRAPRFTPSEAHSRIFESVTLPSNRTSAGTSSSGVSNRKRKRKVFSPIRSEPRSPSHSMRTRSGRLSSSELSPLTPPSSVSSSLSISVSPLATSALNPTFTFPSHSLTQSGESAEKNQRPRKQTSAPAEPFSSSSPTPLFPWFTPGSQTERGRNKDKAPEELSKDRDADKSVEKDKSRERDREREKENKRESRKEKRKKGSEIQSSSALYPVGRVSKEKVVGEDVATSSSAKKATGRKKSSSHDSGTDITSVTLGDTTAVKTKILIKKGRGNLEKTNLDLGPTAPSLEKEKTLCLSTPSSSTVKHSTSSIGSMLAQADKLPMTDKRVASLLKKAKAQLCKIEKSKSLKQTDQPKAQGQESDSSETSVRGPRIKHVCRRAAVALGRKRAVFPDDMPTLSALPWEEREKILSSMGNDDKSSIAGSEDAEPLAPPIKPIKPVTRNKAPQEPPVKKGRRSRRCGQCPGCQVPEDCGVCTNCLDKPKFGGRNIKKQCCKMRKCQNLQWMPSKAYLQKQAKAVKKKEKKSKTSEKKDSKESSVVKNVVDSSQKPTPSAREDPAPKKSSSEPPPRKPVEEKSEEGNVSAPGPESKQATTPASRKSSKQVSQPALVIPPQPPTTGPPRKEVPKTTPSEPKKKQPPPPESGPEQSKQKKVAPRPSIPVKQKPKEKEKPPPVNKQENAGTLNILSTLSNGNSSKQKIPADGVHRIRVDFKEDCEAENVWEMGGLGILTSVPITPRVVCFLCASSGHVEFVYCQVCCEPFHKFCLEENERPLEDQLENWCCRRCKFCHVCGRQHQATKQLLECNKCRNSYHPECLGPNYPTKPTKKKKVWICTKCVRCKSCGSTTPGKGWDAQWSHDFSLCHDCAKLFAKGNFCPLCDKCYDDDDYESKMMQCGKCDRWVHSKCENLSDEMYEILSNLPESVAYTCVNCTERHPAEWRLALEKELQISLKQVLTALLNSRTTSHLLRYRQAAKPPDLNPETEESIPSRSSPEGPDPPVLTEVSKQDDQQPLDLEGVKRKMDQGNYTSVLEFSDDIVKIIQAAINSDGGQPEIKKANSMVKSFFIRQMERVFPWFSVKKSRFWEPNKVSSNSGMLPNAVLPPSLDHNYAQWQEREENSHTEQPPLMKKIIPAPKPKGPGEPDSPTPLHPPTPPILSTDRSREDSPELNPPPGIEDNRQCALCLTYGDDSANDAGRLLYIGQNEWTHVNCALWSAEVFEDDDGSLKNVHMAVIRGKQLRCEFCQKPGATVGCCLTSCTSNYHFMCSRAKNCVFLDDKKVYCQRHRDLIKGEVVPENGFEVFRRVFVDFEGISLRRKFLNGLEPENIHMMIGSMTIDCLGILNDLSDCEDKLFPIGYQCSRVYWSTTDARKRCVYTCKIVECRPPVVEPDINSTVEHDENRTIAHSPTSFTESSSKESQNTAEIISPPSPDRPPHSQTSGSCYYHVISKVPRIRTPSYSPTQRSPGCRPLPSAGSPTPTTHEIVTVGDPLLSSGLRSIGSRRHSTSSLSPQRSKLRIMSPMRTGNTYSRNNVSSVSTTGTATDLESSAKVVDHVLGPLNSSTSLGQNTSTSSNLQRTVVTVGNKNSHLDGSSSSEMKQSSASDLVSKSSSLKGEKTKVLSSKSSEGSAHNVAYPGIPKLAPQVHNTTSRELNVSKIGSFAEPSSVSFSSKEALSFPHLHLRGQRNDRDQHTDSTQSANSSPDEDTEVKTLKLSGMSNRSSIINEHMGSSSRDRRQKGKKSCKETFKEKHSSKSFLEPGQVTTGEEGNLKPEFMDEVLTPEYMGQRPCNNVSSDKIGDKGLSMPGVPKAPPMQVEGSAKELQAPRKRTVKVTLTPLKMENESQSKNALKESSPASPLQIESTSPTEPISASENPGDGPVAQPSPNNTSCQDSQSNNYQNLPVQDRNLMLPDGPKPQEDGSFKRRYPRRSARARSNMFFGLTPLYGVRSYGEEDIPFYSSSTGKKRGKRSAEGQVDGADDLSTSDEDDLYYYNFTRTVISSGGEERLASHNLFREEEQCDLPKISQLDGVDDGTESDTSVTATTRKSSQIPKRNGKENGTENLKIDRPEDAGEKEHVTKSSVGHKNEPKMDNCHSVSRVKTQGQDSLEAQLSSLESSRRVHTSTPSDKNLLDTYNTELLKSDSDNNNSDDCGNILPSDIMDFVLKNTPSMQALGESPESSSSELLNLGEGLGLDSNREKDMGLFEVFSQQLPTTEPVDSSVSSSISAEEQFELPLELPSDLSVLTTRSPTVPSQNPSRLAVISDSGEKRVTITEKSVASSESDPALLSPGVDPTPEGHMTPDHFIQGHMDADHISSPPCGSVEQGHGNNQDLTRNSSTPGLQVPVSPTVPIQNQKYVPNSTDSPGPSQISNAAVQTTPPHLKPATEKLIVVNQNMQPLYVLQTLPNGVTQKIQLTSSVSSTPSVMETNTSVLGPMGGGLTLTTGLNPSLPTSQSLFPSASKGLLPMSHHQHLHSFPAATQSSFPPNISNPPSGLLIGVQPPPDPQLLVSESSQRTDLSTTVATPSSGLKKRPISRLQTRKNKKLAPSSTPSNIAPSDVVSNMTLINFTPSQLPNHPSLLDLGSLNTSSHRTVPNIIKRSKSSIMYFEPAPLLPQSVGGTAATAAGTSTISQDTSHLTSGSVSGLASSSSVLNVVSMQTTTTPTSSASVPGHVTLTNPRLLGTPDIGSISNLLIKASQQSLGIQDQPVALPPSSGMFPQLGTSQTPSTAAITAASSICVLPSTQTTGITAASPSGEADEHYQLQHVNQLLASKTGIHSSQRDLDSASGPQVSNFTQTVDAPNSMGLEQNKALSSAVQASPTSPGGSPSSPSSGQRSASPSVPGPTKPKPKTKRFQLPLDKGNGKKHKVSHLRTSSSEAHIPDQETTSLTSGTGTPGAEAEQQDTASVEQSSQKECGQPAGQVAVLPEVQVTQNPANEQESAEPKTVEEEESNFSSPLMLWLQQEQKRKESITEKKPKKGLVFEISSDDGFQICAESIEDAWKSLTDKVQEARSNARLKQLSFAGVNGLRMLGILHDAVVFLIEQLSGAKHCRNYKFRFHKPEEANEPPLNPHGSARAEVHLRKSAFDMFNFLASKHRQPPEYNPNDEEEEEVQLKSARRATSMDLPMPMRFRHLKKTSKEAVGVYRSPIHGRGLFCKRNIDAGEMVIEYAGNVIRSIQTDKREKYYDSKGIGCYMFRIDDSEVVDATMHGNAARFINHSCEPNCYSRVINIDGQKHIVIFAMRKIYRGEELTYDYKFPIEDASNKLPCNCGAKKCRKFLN"}, "source": "PubChem BioAssay AID2662", "about": "(National Center for Advancing Translational Sciences (NCATS), 2010)", "note": "About 110 (0.038%) of roughly 290,000 compounds were called active. This list was built around the results that the source calls inconclusive (neither active nor inactive); the mix of calls is not that of the screen. Calls come from the whole dose curve; as a rule, active = well fitted inhibition curve with a large enough effect in the polarisation, with a control signal flat (not every such curve was filed as active); inconclusive = small, poorly fitted or top-dose-only effect, or effect the other way, or a change in a side signal; inactive = no such curve, though single readings can be large or run the other way; the % refers to the polarisation. Potencies of inconclusive entries are doubtful fits and often do not repeat. “Side channel” marks fits to a control or component signal instead of the main read-out. Potency is the fitted concentration of half-maximal effect."}
{"biological_target": "Histone-lysine N-methyltransferase 2A (Homo sapiens) (UniProt Q03164)", "assay": "qHTS Fluorescence Polarization Assay for Inhibitors of MLL CXXC domain - DNA interaction", "settings": "MLL-CXXC / FITC-HOXA9 DNA fluorescence polarization; series mostly up to 115 µM", "how_it_was_run": "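Steps: dispense CXXC domain solution (7 uM) → pin compounds or unlabeled HOX-A9 DNA control → 5 min ambient → add FLSN-HOX-A9 solution (50 nM) → spin → 30 min ambient → fluorescence polarization. Tris pH 7.5/NaCl/DTT/BSA buffer.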"}
{"smiles": "O=C1/C(=C/c2ccc(Br)cc2)Oc2cc(O)ccc21", "Potency": "inconclusive: 14.1 µM [quencher, side channel, full curve, poor fit]"}
{"smiles": "CCCOc1cccc(C2/C(=C(/O)c3ccc4c(c3)CC(C)O4)C(=O)C(=O)N2CCN2CCOCC2)c1", "note": "(centres undefined)", "Potency": "inconclusive: 2.51 µM [fluorescent, side channel, full curve, poor fit]"}
{"smiles": "CCCN(CCc1cccs1)[C@H]1CCc2c(O)cccc2C1", "Potency": "inactive"}
{"smiles": "CC(C)C1OC2(C)OC(=N)C1(C#N)C(C#N)(C#N)C2c1ccccc1", "note": "(centres undefined)", "Potency": "active: 17.8 µM"}
{"smiles": "Cc1ccc(Nc2nc(N)c([N+](=O)[O-])c(N3CCOCC3)n2)cc1C", "Potency": "inconclusive: 15.8 µM [fluorescent, side channel, partial curve]"}
{"smiles": "O=C1CN(C(=O)C2CCCC2)CCN1", "Potency": "inconclusive: 70.8 µM [inhibitor, single point]"}
{"smiles": "COc1cccc(Nc2cc(C)c3ccccc3n2)c1", "Potency": "inconclusive: 63.1 µM [fluorescent, side channel, single point]"}
{"smiles": "O=C(c1coc(=O)c(Br)c1)N1CCCc2ccccc21", "Potency": "inactive"}
{"smiles": "O=C(N/N=C/c1ccccc1Cl)c1nc2ccc([N+](=O)[O-])cc2c(=O)[nH]1", "Potency": "inactive"}
{"smiles": "Cc1ccc(S(=O)(=O)NC(=O)c2ccc(-c3ccc(C)c4ccccc34)o2)cc1", "Potency": "inconclusive: 35.5 µM [quencher, side channel, partial curve]"}
{"smiles": "COc1cc(C(=O)N2CCN(Cc3ccccc3C(F)(F)F)CC2)cc(OC)c1OC", "Potency": "inactive"}
{"smiles": "CCN1CCCC1CNC(=O)c1cc2cc(F)ccc2[nH]1", "note": "(centres undefined)", "Potency": "inconclusive: 14.1 µM [inhibitor, single point]"}
{"smiles": "CCOC(=O)c1nn(-c2ccccc2C)c2nc(Nc3ccccc3)cc(=O)n12", "Potency": "inactive"}
{"smiles": "Cc1sc2nc(SCC(=O)N3CCOCC3)[nH]c(=O)c2c1-c1ccccc1", "Potency": "inconclusive: 35.5 µM [fluorescent, side channel, single point]"}
{"smiles": "COc1ccccc1OCCNc1cc(N2CCCCC2)ccc1[N+](=O)[O-]", "Potency": "inconclusive: 6.31 µM [fluorescent, side channel, single point]"}
{"smiles": "Cn1cc(CN2CCC(n3nccc3NC(=O)c3ccccc3Cl)CC2)cn1", "Potency": "inactive"}
{"smiles": "CCn1c(CSc2nnc3ccccn23)nc2cc(C(=O)O)ccc21", "Potency": "inconclusive: 70.8 µM [inhibitor, single point]"}
{"smiles": "O=C1NN(c2ccccc2)C(=O)/C1=C/c1ccc(-c2cccc(C(=O)O)c2)o1", "Potency": "active: 20 µM"}
{"smiles": "COc1ccc(N2C(=O)c3cccc4cc(Br)cc(c34)C2=O)cc1", "Potency": "inconclusive: 1 µM [inhibitor, full curve, poor fit]"}
{"smiles": "CCOC(=O)c1c(/N=C/c2cccc([N+](=O)[O-])c2O)sc2c1CCC2", "Potency": "inactive"}
{"smiles": "COc1ccc(CN(C(=O)c2cc3ccccc3oc2=O)C2CCCC2)cc1", "Potency": "inconclusive: 44.7 µM [fluorescent, side channel, single point]"}
{"smiles": "CCCN1C=CC(=CC=C(C#N)C#N)C=C1", "Potency": "inconclusive: 39.8 µM [fluorescent, partial curve]"}
{"smiles": "Cc1ccccc1NC(=O)CN1C(=O)S/C(=C\\c2cccn2-c2cccc(C(=O)O)c2)C1=O", "Potency": "inactive"}
{"smiles": "CCCCNc1ccc2c3c(cccc13)C(=O)N(CCCC)C2=O", "Potency": "inconclusive: 3.16 µM [fluorescent, side channel, full curve]"}
{"smiles": "CC(C)(C)c1ccc(OCCCC(=O)N2CCOCC2)cc1", "Potency": "inactive"}
{"smiles": "O=C(Cc1ccc(-n2c(=O)[nH]c3ccsc3c2=O)cc1)NCc1cccnc1", "Potency": "inconclusive: 63.1 µM [quencher, side channel, single point]"}
{"smiles": "Cn1c(N)c(C(=O)COC(=O)c2cc(-c3ccco3)nc3ccccc23)c(=O)n(Cc2ccccc2)c1=O", "Potency": "inactive"}
{"smiles": "CC1CN(S(=O)(=O)c2ccc(C(=O)Nc3sc4c(c3C(N)=O)CCN(C)C4)cc2)CC(C)O1", "note": "(centres undefined)", "Potency": "inconclusive: 31.6 µM [fluorescent, side channel, single point]"}
{"smiles": "O=C(CSc1nnc(NC(=O)C2CC(=O)N(c3ccccc3)C2)s1)NCc1ccco1", "note": "(centres undefined)", "Potency": "inconclusive: 39.8 µM [fluorescent, side channel, partial curve]"}
{"smiles": "CCCC(C)C(=O)Nc1ccc2c(c1)OCCO2", "note": "(centres undefined)", "Potency": "inactive"}
{"smiles": "CCOC(=O)C1CC(=O)c2cc(OC)c(OC)cc2C1", "note": "(centres undefined)", "Potency": "inconclusive: 10 µM [fluorescent, side channel, single point]"}
{"smiles": "C/C(=N\\Nc1ncnc2sc(C)c(C)c12)c1ccccn1", "Potency": "inconclusive: 12.6 µM [fluorescent, side channel, partial curve]"}
{"smiles": "CN(CC(=O)Nc1ccc(F)cc1)C(=O)C1CC(=O)N(Cc2ccccc2)C1", "note": "(centres undefined)", "Potency": "inconclusive: 14.1 µM [fluorescent, side channel, single point]"}
{"smiles": "COc1ccc(-c2csc(NC(=O)c3ccccc3NS(=O)(=O)c3ccc(F)c(F)c3)n2)cc1", "Potency": "inconclusive: 89.1 µM [inhibitor, single point]"}
{"smiles": "O=C(NC1CCCCCC1)c1ccc(-n2cnnc2)cc1", "Potency": "inconclusive: 89.1 µM [quencher, side channel, single point]"}
{"smiles": "N#Cc1nc(Cc2ccccc2)oc1N1CCC(C(N)=O)CC1", "Potency": "inactive"}
{"smiles": "C/C(=N/NC(=O)Cc1c(C)[nH][nH]c1=O)c1ccc(O)cc1", "Potency": "inconclusive: 89.1 µM [quencher, side channel, single point]"}
{"smiles": "O=C(CSc1nc(-c2cccs2)cc(C(F)(F)F)n1)NCc1ccccc1", "Potency": "inactive"}
{"smiles": "N#CC1=C(N)SC(N)=C(C#N)C1c1ccnc2ccccc12", "Potency": "inconclusive: 31.6 µM [fluorescent, side channel, single point]"}
{"smiles": "COc1ccc(OC)c(NC(=O)Nc2ccc3c(c2)CCC3)c1", "Potency": "inconclusive: 14.1 µM [quencher, side channel, single point]"}
{"smiles": "O=C(O)[C@@H]1[C@@H]2C[C@H]3c4[nH]c5ccccc5c4CCN3C[C@@H]2CC[C@@H]1O", "Potency": "inactive"}
{"smiles": "COc1cc(/C=N/Nc2nc(C)nc3c2cnn3-c2ccccc2)ccc1O", "Potency": "inconclusive: 70.8 µM [fluorescent, side channel, single point]"}
{"smiles": "O=C(c1ccc(F)cc1)N(Cc1ccco1)C1CCS(=O)(=O)C1", "note": "(centres undefined)", "Potency": "inconclusive: 39.8 µM [quencher, side channel, single point]"}
{"smiles": "Cc1ccc(CN(Cc2ccccn2)C(=O)Nc2ccc(C)c(C)c2)cc1", "Potency": "inconclusive: 6.31 µM [quencher, side channel, single point]"}
{"smiles": "CCOC(=O)/C(=N\\Nc1ncnc2ccccc12)c1ccc(C)cc1", "Potency": "inconclusive: 20 µM [fluorescent, side channel, partial curve]"}
{"smiles": "O=C(Cn1cc(CCO)nn1)N1CCNCC1", "Potency": "inconclusive: 112 µM [inhibitor, partial curve, poor fit]"}
{"smiles": "Cc1cc(N/N=C/c2ccc(O)cc2)nc(NS(=O)(=O)c2ccccc2)n1", "Potency": "inactive"}
{"smiles": "Cc1ccc(-n2nc3c(c2NC(=O)c2ccco2)CS(=O)C3)cc1", "note": "(centres undefined)", "Potency": "inconclusive: 15.8 µM [fluorescent, side channel, single point]"}
{"smiles": "Cn1nc(C(=O)NCCOc2ccccc2)c2ccccc2c1=O", "Potency": "inactive"}
{"smiles": "Brc1ccc([C@H]2CN3CCSC3=N2)cc1", "Potency": "inconclusive: 89.1 µM [inhibitor, partial curve, poor fit]"}
{"smiles": "CC[n+]1ccccc1/C=C/c1ccc(N(C)C)cc1", "Potency": "inconclusive: 35.5 µM [fluorescent, partial curve]"}
{"smiles": "CC1(C)Cc2ccccc2C(NNC(=O)c2ccncc2)=N1", "Potency": "inactive"}
{"smiles": "C(=N\\Nc1nncc2ccccc12)/c1ccccn1", "Potency": "inconclusive: 44.7 µM [fluorescent, side channel, partial curve]"}
{"smiles": "COc1cccc(/C=C2\\SC(=O)N(CC(=O)NCCCn3ccnc3)C2=O)c1", "Potency": "inconclusive: 2.24 µM [quencher, side channel, full curve]"}
{"smiles": "O=C(N/N=C/c1ccc(O)c2ncccc12)c1cccc(Br)c1", "Potency": "inconclusive: 35.5 µM [fluorescent, side channel, partial curve]"}
{"smiles": "Nc1nc(N2CCOCC2)cc(=O)[nH]1", "Potency": "inactive"}
{"smiles": "Cc1nnc2ccc(-c3ccc(NS(C)(=O)=O)cc3)nn12", "Potency": "inconclusive: 31.6 µM [inhibitor, single point]"}
{"smiles": "COCC(=O)N1CCN(c2nc3ccccc3o2)CC1", "Potency": "inconclusive: 7.08 µM [fluorescent, side channel, full curve]"}
{"smiles": "COc1ccccc1N1CCN(Cc2ccc(O)c3ncccc23)CC1", "Potency": "inconclusive: 22.4 µM [quencher, side channel, partial curve]"}
{"smiles": "Cc1c(Cl)cccc1NC(=O)c1ccc(OCC(=O)NCc2ccccc2)cc1", "Potency": "inconclusive: 35.5 µM [quencher, side channel, single point]"}
{"smiles": "CCn1c(CC(=O)Nc2ccc(OC)cc2)nnc1SCC(=O)N1CCOCC1", "Potency": "inconclusive: 15.8 µM [quencher, side channel, single point]"}
{"smiles": "C=CCOC(=O)C1=C[C@H](C2CC2)[C@@H](CCCO)[C@H](OCC)O1", "Potency": "inconclusive: 44.7 µM [inhibitor, partial curve]"}
{"smiles": "CCOC(=O)CS(=O)(=O)c1nc(-c2ccccc2)cc(C(F)(F)F)n1", "Potency": "inconclusive: 20 µM [quencher, side channel, partial curve]"}
{"smiles": "O=C(COC(=O)c1ccc(Cl)c([N+](=O)[O-])c1)NC1CCCC1", "Potency": "inconclusive: 70.8 µM [fluorescent, side channel, single point]"}
